Experimental data published in publication PMC8619434 (Viruses, 2021).
Where two headings read alike, the source gives them in different places.

System: SARS-CoV-2 spike protein pseudovirus
Assay: organism not typed
Assay type: cell-based

`CN1CC2c3ccccc3Oc3ccc(Cl)cc3C2C1` (centres unmarked) [asenapine] gave an IC50 (293T/ACE2, read-out: IC50 of SARS-CoV-2-S pseudovirus infectivity) of 2550 nM and an IC50 (read-out: IC50 of SARS-CoV-2-S pseudovirus infectivity) of 2600 nM.
